This is an account of results in article PMC5996148.

Common to all, as to assay: protein microarray (ProtoArray v5.0), streptavidin-Alexa Fluor 647
Holding throughout (settings): 3'-biotin; 20 mM Tris (pH 7.5), 5 mM MgCl2, 100 mM KCl, 0.1% Tween-20, A/T-rich and random oligonucleotide blockers; temperature not stated; high values mean tight binding

Test [1] concerns MLX (human).
The test system of test [2] is MMP12 (human).
Test [3] has as its target T1, MOBKL1A (UniProt Q7L9L4).
T1 sequence: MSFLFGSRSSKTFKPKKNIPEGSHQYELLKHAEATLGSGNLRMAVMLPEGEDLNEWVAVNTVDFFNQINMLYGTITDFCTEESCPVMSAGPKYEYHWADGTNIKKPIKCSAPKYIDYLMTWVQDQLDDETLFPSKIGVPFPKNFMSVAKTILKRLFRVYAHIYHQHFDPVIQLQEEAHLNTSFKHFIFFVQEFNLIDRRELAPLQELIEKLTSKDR

Test [4] concerns MOGAT3 (human).
In test [5] the test system is MPI (human).
Test [6] addresses T2, MPP7 (UniProt Q5T2T1).
T2 sequence: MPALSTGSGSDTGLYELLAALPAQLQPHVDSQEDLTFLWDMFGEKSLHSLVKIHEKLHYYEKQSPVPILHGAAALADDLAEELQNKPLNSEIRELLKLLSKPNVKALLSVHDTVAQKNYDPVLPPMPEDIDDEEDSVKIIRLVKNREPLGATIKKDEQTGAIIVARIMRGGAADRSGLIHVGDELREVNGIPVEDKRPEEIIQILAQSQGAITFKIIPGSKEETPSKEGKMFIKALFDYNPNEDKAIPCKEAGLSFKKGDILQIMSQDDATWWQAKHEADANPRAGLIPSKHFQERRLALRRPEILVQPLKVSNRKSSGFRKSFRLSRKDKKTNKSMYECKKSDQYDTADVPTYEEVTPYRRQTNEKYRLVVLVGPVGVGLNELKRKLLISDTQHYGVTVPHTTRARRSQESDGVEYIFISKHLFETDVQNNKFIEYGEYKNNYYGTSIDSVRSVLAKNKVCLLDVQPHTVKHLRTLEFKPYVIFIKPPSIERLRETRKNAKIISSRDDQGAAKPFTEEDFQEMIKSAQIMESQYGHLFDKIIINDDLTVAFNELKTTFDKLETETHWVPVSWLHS

In test [7] the test system is MPPED2 (human).
Test [8] deals with MR1 (human).
Test [9] deals with MRS2L (human).
Test [10] relates to MSRB3 (human).

Several values for one entry are separate records, joined by “and”; a condition that tells them apart may be missing. Equal values may be shown once. The list shows a part of the results. For some of these results: Construct or isoform of the protein are uncertain.

“GGGGACAGGGGTATGGGGAGGGG [G4-3 biotinylated (CtG)]”: the binding signal in [1] was -0.338 z-score and -0.336 z-score; in test [2], -0.33 z-score; in test [3], -0.311 z-score; in test [4], -0.343 z-score; in [5], -0.332 z-score; in [6], 3.33 z-score. Moreover, the binding signal in test [7] is -0.297 z-score; in test [8], -0.301 z-score; in [9] it was -0.337 z-score; in [10], -0.328 z-score.
